The results in this text go back to publication doi:10.1101/2023.02.03.526966.

For one test, the target named is T1, mouse nidogen-1 (mouse) (UniProt P10493).
T1 sequence: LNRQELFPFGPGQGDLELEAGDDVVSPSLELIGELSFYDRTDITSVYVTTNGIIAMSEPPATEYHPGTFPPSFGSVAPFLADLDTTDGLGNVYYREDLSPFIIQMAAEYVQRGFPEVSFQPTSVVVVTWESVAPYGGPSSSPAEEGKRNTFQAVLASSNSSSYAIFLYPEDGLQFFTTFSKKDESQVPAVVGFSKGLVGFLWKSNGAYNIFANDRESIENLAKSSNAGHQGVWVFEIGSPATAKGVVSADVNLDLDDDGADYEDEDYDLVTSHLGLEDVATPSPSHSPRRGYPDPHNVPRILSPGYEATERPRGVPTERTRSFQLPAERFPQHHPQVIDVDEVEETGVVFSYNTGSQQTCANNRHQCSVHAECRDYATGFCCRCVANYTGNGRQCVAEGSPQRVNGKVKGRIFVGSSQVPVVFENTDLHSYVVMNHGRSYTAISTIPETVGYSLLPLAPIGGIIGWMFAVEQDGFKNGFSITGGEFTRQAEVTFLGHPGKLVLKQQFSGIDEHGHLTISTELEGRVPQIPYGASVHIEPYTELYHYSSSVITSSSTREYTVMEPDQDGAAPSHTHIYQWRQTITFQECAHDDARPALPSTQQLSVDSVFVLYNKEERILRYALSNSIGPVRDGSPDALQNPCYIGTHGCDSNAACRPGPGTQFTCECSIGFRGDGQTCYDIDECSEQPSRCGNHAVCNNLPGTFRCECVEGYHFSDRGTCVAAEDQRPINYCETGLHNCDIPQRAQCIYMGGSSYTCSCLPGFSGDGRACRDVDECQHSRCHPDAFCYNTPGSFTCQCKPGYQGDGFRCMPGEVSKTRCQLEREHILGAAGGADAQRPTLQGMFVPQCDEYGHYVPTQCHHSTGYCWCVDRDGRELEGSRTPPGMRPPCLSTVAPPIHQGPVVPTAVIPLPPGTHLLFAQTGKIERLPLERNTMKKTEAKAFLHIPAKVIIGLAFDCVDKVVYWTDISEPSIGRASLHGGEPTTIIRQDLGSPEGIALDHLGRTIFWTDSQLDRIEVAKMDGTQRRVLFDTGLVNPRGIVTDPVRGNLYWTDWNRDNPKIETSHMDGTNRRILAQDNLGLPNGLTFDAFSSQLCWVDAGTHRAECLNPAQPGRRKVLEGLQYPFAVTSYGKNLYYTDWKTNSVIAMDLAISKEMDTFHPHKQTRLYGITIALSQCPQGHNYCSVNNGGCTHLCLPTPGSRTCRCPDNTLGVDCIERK
Briefly: co-IP.

A further test has as its target T2, mouse nidogen-2 (mouse) (UniProt O88322).
T2 sequence: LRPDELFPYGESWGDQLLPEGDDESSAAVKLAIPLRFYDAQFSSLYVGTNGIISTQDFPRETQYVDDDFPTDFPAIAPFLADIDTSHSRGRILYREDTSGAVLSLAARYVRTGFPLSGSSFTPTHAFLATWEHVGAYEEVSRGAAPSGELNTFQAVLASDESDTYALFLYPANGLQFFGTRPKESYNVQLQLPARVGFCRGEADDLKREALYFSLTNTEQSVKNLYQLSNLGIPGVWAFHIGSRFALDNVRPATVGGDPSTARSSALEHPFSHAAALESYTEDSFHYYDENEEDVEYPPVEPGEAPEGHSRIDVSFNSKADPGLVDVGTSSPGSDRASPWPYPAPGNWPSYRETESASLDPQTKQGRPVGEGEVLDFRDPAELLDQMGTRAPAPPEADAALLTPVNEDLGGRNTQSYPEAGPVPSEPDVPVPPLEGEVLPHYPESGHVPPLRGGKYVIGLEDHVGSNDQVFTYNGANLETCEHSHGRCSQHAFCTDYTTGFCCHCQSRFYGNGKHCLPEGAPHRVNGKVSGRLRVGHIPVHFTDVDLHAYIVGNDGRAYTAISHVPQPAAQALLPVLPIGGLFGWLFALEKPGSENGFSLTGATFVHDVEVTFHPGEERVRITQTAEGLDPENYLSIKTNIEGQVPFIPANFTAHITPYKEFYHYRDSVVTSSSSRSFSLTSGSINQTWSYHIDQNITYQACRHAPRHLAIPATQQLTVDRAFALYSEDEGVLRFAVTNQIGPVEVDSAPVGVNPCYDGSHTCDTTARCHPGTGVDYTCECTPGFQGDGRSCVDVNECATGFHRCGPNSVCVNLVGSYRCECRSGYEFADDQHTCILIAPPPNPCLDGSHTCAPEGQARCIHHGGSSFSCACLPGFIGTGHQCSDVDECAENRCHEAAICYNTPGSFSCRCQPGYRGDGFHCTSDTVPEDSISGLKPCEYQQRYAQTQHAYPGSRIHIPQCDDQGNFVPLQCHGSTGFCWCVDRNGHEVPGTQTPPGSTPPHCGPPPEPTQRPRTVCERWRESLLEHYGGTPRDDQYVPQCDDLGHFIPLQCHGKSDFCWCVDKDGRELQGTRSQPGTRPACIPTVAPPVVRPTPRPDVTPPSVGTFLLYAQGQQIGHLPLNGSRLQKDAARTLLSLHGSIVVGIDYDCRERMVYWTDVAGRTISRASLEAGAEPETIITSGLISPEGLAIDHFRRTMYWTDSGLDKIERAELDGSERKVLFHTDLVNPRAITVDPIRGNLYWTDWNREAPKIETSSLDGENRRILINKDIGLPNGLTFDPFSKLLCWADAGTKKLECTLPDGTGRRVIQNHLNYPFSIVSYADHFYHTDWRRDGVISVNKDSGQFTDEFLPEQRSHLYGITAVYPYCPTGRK
Briefly: co-IP.

These are yes or no findings as the source states them, for the method shown. Binding seen in cells or lysates may run through a third protein. Some entries that bind do so weakly or less than the wild type. Where a sequence is shown, tags or fusion partners need not be part of it.

B1: HA-ePTPRσ-Myc (extracellular domain of human PTPRσ fused to the PDGF receptor transmembrane domain) (domain or fragment, UniProt Q13332 30-1282)
chain: EEPPRFIKEPKDQIGVSGGVASFVCQATGDPKPRVTWNKKGKKVNSQRFETIEFDESAGAVLRIQPLRTPRDENVYECVAQNSVGEITVHAKLTVLREDQLPSGFPNIDMGPQLKVVERTRTATMLCAASGNPDPEITWFKDFLPVDPSASNGRIKQLRSETFESTPIRGALQIESSEETDQGKYECVATNSAGVRYSSPANLYVRELREVRRVAPRFSILPMSHEIMPGGNVNITCVAVGSPMPYVKWMQGAEDLTPEDDMPVGRNVLELTDVKDSANYTCVAMSSLGVIEAVAQITVKSLPKAPGTPMVTENTATSITITWDSGNPDPVSYYVIEYKSKSQDGPYQIKEDITTTRYSIGGLSPNSEYEIWVSAVNSIGQGPPSESVVTRTGEQAPASAPRNVQARMLSATTMIVQWEEPVEPNGLIRGYRVYYTMEPEHPVGNWQKHNVDDSLLTTVGSLLEDETYTVRVLAFTSVGDGPLSDPIQVKTQQGVPGQPMNLRAEARSETSITLSWSPPRQESIIKYELLFREGDHGREVGRTFDPTTSYVVEDLKPNTEYAFRLAARSPQGLGAFTPVVRQRTLQSKPSAPPQDVKCVSVRSTAILVSWRPPPPETHNGALVGYSVRYRPLGSEDPEPKEVNGIPPTTTQILLEALEKWTQYRITTVAHTEVGPGPESSPVVVRTDEDVPSAPPRKVEAEALNATAIRVLWRSPAPGRQHGQIRGYQVHYVRMEGAEARGPPRIKDVMLADAQWETDDTAEYEMVITNLQPETAYSITVAAYTMKGDGARSKPKVVVTKGAVLGRPTLSVQQTPEGSLLARWEPPAGTAEDQVLGYRLQFGREDSTPLATLEFPPSEDRYTASGVHKGATYVFRLAARSRGGLGEEAAEVLSIPEDTPRGHPQILEAAGNASAGTVLLRWLPPVPAERNGAIVKYTVAVREAGALGPARETELPAAAEPGAENALTLQGLKPDTAYDLQVRAHTRRGPGPFSPPVRYRTFLRDQVSPKNFKVKMIMKTSVLLSWEFPDNYNSPTPYKIQYNGLTLDVDGRTTKKLITHLKPHTFYNFVLTNRGSSLGGLQQTVTAWTAFNLLNGKPSVAPKPDADGFIMVYLPDGQSPVPVQSYFIVMVPLRKSRGGQFLTPLGSPEDMDLEELIQDISRLQRRSLRHSRQLEVPRPYIAARFSVLPPTFHPGDQKQYGGFDNRGLEPGHRYVLFVLAVLQKSEPTFAASPFSDPFQLDNPDPQPIVDGEEG
Turning to B1, the binding result in the test with mouse nidogen-1 (mouse) and with mouse nidogen-2 (mouse) was “no binding” each time.

B2: HA-ePTPRδ-Myc (extracellular domain of human PTPRδ fused to the PDGF receptor transmembrane domain) (domain or fragment, UniProt P23468 21-1265)
chain: ETPPRFTRTPVDQTGVSGGVASFICQATGDPRPKIVWNKKGKKVSNQRFEVIEFDDGSGSVLRIQPLRTPRDEAIYECVASNNVGEISVSTRLTVLREDQIPRGFPTIDMGPQLKVVERTRTATMLCAASGNPDPEITWFKDFLPVDTSNNNGRIKQLRSESIGGTPIRGALQIEQSEESDQGKYECVATNSAGTRYSAPANLYVRELREVRRVPPRFSIPPTNHEIMPGGSVNITCVAVGSPMPYVKWMLGAEDLTPEDDMPIGRNVLELNDVRQSANYTCVAMSTLGVIEAIAQITVKALPKPPGTPVVTESTATSITLTWDSGNPEPVSYYIIQHKPKNSEELYKEIDGVATTRYSVAGLSPYSDYEFRVVAVNNIGRGPPSEPVLTQTSEQAPSSAPRDVQARMLSSTTILVQWKEPEEPNGQIQGYRVYYTMDPTQHVNNWMKHNVADSQITTIGNLVPQKTYSVKVLAFTSIGDGPLSSDIQVITQTGVPGQPLNFKAEPESETSILLSWTPPRSDTIANYELVYKDGEHGEEQRITIEPGTSYRLQGLKPNSLYYFRLAARSPQGLGASTAEISARTMQSKPSAPPQDISCTSPSSTSILVSWQPPPVEKQNGIITEYSIKYTAVDGEDDKPHEILGIPSDTTKYLLEQLEKWTEYRITVTAHTDVGPGPESLSVLIRTNEDVPSGPPRKVEVEAVNSTSVKVSWRSPVPNKQHGQIRGYQVHYVRMENGEPKGQPMLKDVMLADAQWEFDDTTEHDMIISGLQPETSYSLTVTAYTTKGDGARSKPKLVSTTGAVPGKPRLVINHTQMNTALIQWHPPVDTFGPLQGYRLKFGRKDMEPLTTLEFSEKEDHFTATDIHKGASYVFRLSARNKVGFGEEMVKEISIPEEVPTGFPQNLHSEGTTSTSVQLSWQPPVLAERNGIITKYTLLYRDINIPLLPMEQLIVPADTTMTLTGLKPDTTYDVKVRAHTSKGPGPYSPSVQFRTLPVDQVFAKNFHVKAVMKTSVLLSWEIPENYNSAMPFKILYDDGKMVEEVDGRATQKLIVNLKPEKSYSFVLTNRGNSAGGLQHRVTAKTAPDVLRTKPAFIGKTNLDGMITVQLPEVPANENIKGYYIIIVPLKKSRGKFIKPWESPDEMELDELLKEISRKRRSIRYGREVELKPYIAAHFDVLPTEFTLGDDKHYGGFTNKQLQSGQEYVFFVLAVMEHAESKMYATSPYSDPVVSMDLDPQPITDEEE
With B2, the binding result with mouse nidogen-1 (mouse) and with mouse nidogen-2 (mouse) was “binds” throughout.
